Values of other authors in US20110105387A1 (priority 2009, published 2011).
The name of at least one read-out is uncertain.

Conditions: propylene glycol, glycerin and PEG 400

CO[C@H]1C[C@@H]2CC[C@@H](C)[C@@](O)(O2)C(=O)C(=O)N2CCCC[C@H]2C(=O)O[C@H]([C@H](C)C[C@@H]2CC[C@@H](O)[C@H](OC)C2)CC(=O)[C@H](C)/C=C(\C)[C@@H](O)[C@@H](OC)C(=O)[C@H](C)C[C@H](C)/C=C/C=C/C=C/1C [rapamycin]
solubility in solubilizers used for parenteral formulations: only slightly soluble
